Laboratory results: PubChem BioAssay AID504804 (Drosophila RNAi Screening Center, 2011)

- Assay: 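Knock-downs shielding fly cells from apoptosis caused by DNA damage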 (primary screen)
- Cells: Drosophila Kc cells
- Reagent: long dsRNA against Drosophila genes, 0.5 µg dsRNA per well
- Timing: 96 h (48 h knock-down, then 48 h drug)
- Challenge: doxorubicin 5 µg/ml for 48 h, added 48 h after dsRNA
- Read-out: 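Luminescent ATP counts per replicate, not normalised, reflecting viable cells after 48 h dsRNA knock-down followed by 48 h of 5 µg/ml doxorubicin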
- Direction: raw ATP luminescence: higher = more viable cells, protection from doxorubicin
- Call rule: 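z-score of 2 or more over plate mean in both duplicates, retained only when retests and separate dsRNAs confirm the protection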
In all, the deposit lists about 19,000 reagents; this is an unselected part of those that have a named target and a result. In the full data, 47 (0.25%) were called active. 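Signals are raw, not normalised; exact z-scores behind calls not deposited; actives needed confirmation, so some wells reaching 2 SD are inactive.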 Names joined by + are all predicted targets of the reagent.

| target gene | dsRNA | raw ATP luminescence, replicate 1 | raw ATP luminescence, replicate 2 | activity call |
| --- | --- | --- | --- | --- |
| Iyd (GeneID 39242) | DRSC10614 | 99993 | 93250 | inactive |
| Iyd (GeneID 39242) | DRSC10615 | 99857 | 1.51e5 | inactive |
| Rsod (GeneID 43586) | DRSC15424 | 38150 | 40810 | inactive |
| Rrp4 (GeneID 37731) | DRSC04434 | 52113 | 48247 | inactive |
| Sap30 (GeneID 32664) | DRSC19916 | 3.26e5 | 3.13e5 | inactive |
| CG14879 (GeneID 41982) | DRSC15003 | 89930 | 73470 | inactive |
| Caper (GeneID 33989) | DRSC02137 | 65910 | 42563 | inactive |
| Pvf2 (GeneID 33994) | DRSC00968 | 1.27e5 | 1.56e5 | inactive |
| Pvf2 (GeneID 33994) | DRSC02283 | 23430 | 16867 | inactive |
| CG9304 (GeneID 37500) | DRSC04538 | 51337 | 60023 | inactive |
| CG34462 (GeneID 5740319) | DRSC10768 | 70913 | 60127 | inactive |
| BaraA1 + BaraA2 | DRSC05417 | 94180 | 1.02e5 | inactive |
| zf30C (GeneID 34292) | DRSC03641 | 1.17e5 | 67950 | inactive |
| CG32706 + CG6999 | DRSC18412 | 3.44e5 | 2.85e5 | inactive |
| be (GeneID 32430) | DRSC19944 | 4.26e5 | 3.68e5 | inactive |
| be (GeneID 32430) | DRSC19945 | 4.66e5 | 3.32e5 | inactive |
| CG12991 (GeneID 32734) | DRSC19511 | 2.52e5 | 2.61e5 | inactive |
| Catsup (GeneID 48805) | DRSC03288 | 57207 | 55630 | inactive |
| Gr33a (GeneID 34641) | DRSC02589 | 76553 | 77227 | inactive |
| Eig71Ef (GeneID 39707) | DRSC11153 | 42917 | 39010 | inactive |
| CG14062 (GeneID 43389) | DRSC14725 | 66040 | 45920 | inactive |
| CG2278 (GeneID 31751) | DRSC18226 | 40040 | 40360 | inactive |
| CG7139 (GeneID 40448) | DRSC11611 | 25517 | 20213 | inactive |
| obst-H (GeneID 39681) | DRSC10935 | 82920 | 49460 | inactive |
| obst-H (GeneID 39681) | DRSC10940 | 63567 | 41167 | inactive |
| CG42457 (retired record) + cpo | DRSC13273 | 1.71e5 | 1.77e5 | inactive |
| CG42457 (retired record) + cpo | DRSC14503 | 17300 | 15710 | inactive |
| CG42457 (retired record) + cpo | DRSC15327 | 15600 | 17590 | inactive |
| CG42457 (retired record) + cpo | DRSC16926 | 16440 | 18150 | inactive |
| CG42748 (GeneID 35442) | DRSC03712 | 60690 | 80350 | inactive |
| CG42748 (GeneID 35442) | DRSC03713 | 65493 | 47590 | inactive |
| CG42748 (GeneID 35442) | DRSC03734 | 63593 | 72630 | inactive |
| CG11007 (GeneID 37249) | DRSC06023 | 46163 | 56097 | inactive |
| CG10919 (GeneID 40917) | DRSC14283 | 63167 | 66763 | inactive |
| CG10651 (GeneID 35303) | DRSC02086 | 57920 | 84497 | inactive |
| TwdlX (GeneID 318094) | DRSC19151 | 1.95e5 | 2.34e5 | inactive |
| mars (GeneID 36498) | DRSC06656 | 55027 | 45143 | inactive |
| CG31551 (GeneID 318795) | DRSC12159 | 92717 | 31097 | inactive |
| ksr (GeneID 40660) | DRSC12379 | 67663 | 68530 | inactive |
| CG33494 (GeneID 2768686) | DRSC13715 | 2.34e5 | 2.05e5 | inactive |
| CG14739 (GeneID 41467) | DRSC14959 | 31610 | 57110 | inactive |
| Gr98a (GeneID 43305) | DRSC14719 | 1.94e5 | 2.15e5 | inactive |
| CSN5 (GeneID 42000) | DRSC16592 | 39453 | 36713 | inactive |
| MTA1-like (GeneID 40693) | DRSC12382 | 52023 | 41807 | inactive |
| Setd3 (GeneID 31638) | DRSC17840 | 36800 | 44250 | inactive |
| Setd3 (GeneID 31638) | DRSC18269 | 44050 | 42780 | inactive |
| CG9269 (GeneID 41663) | DRSC16465 | 76070 | 1.05e5 | inactive |
| Dnai2 (GeneID 39318) | DRSC10575 | 80010 | 50990 | inactive |
| Orcokinin (GeneID 37806) | DRSC04202 | 48697 | 53633 | inactive |
| Dhc1 (GeneID 41171) | DRSC16503 | 60833 | 51333 | inactive |
| CG42269 (GeneID 38689) | DRSC10670 | 87427 | 93557 | inactive |
| CG42269 (GeneID 38689) | DRSC10672 | 73623 | 85493 | inactive |
| nAChRbeta2 (GeneID 42920) | DRSC17010 | 39067 | 44960 | inactive |
| CG8379 (GeneID 41060) | DRSC16414 | 52820 | 62800 | inactive |
| CG3494 (GeneID 37903) | DRSC04375 | 42963 | 56440 | inactive |
| TrpRS-m (GeneID 39989) | DRSC10848 | 27607 | 28680 | inactive |
| CG13843 (GeneID 42668) | DRSC14693 | 72260 | 69410 | inactive |
| Pif2 (GeneID 170876) | DRSC12525 | 68690 | 66280 | inactive |
| CG9328 (GeneID 35344) | DRSC03203 | 31500 | 38283 | inactive |
| CG8141 (GeneID 41622) | DRSC16387 | 76050 | 57440 | inactive |
| CG34001 (GeneID 3885640) | DRSC09042 | 1.82e5 | 2.08e5 | inactive |
| CG12288 (GeneID 35027) | DRSC02155 | 74383 | 77533 | inactive |
| SdhCL (GeneID 41324) | DRSC16078 | 45587 | 45877 | inactive |
| CG9313 (GeneID 37374) | DRSC04540 | 84787 | 79400 | inactive |
| trbl (GeneID 43999) | DRSC11901 | 70040 | 58183 | inactive |
| CG17684 (GeneID 3355066) | DRSC07724 | 1.92e5 | 1.76e5 | inactive |
| CG17684 (GeneID 3355066) | DRSC21166 | 4.08e5 | 3.50e5 | inactive |
| CG7914 (GeneID 32907) | DRSC20068 | 3.27e5 | 3.14e5 | inactive |
| Mocs1 (GeneID 39238) | DRSC11225 | 88920 | 75953 | inactive |
| wg (GeneID 34009) | DRSC03636 | 17087 | 17007 | inactive |
| CG11158 (GeneID 32327) | DRSC19389 | 2.88e5 | 2.38e5 | inactive |
| CG4612 (GeneID 37914) | DRSC04478 | 64387 | 53827 | inactive |
| mRpS31 (GeneID 39749) | DRSC10556 | 24293 | 25630 | inactive |
| Mob3 (GeneID 34372) | DRSC02791 | 59350 | 52610 | inactive |
| CG42249 (GeneID 32043) | DRSC19383 | 3.37e5 | 3.64e5 | inactive |
| CG42249 (GeneID 32043) | DRSC19826 | 3.29e5 | 3.05e5 | inactive |
| CG12511 (GeneID 33797) | DRSC02171 | 31853 | 25783 | inactive |
| Mtch (GeneID 38026) | DRSC08679 | 54020 | 56497 | inactive |
| smog (GeneID 33690) | DRSC00334 | 21227 | 37313 | inactive |
| smog (GeneID 33690) | DRSC00335 | 14297 | 23273 | inactive |
| Itgbn (GeneID 35368) | DRSC03493 | 70953 | 93767 | inactive |
| ND-49L (GeneID 43073) | DRSC14437 | 54410 | 58120 | inactive |
| w (GeneID 31271) | DRSC17233 | 2.63e5 | 2.84e5 | inactive |
| w (GeneID 31271) | DRSC18850 | 51870 | 45960 | inactive |

Laid out differently: results already given
smog (GeneID 33690) [DRSC00334]
- raw ATP luminescence, replicate 1: 21227
- raw ATP luminescence, replicate 2: 37313
- activity call: inactive

smog (GeneID 33690) [DRSC00335]
- raw ATP luminescence, replicate 1: 14297
- raw ATP luminescence, replicate 2: 23273
- activity call: inactive

Itgbn (GeneID 35368) [DRSC03493]
- raw ATP luminescence, replicate 1: 70953
- raw ATP luminescence, replicate 2: 93767
- activity call: inactive

ND-49L (GeneID 43073) [DRSC14437]
- raw ATP luminescence, replicate 1: 54410
- raw ATP luminescence, replicate 2: 58120
- activity call: inactive
